PubChem BioAssay AID1053208 | Peter MacCallum Cancer Centre, 2014

Test: 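Synthetic lethal interactions between gene loss and doxorubicin in osteosarcoma cells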 (primary screen)
System: mouse osteosarcoma cells, early-passage culture from an engineered mouse model of fibroblastic bone tumour
Reagent: siRNA pool against mouse genes, 40 nM
Duration: about 120 h (48 h before drug, then 72 h with drug)
Treatment: doxorubicin 100 nM for 72 h, roughly 30-40% inhibitory dose
Measured: 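Luminescent ATP signal taken as viability with or without 100 nM doxorubicin for 72 h; mean of two wells set against non-targeting siRNA and turned into robust z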
Reading the numbers: viability z-score with doxorubicin: higher = more viable cells under doxorubicin; viability z-score without drug: higher = more viable cells with knock-down alone
Rule for the call: 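a pool counts as active when its viability z-score with doxorubicin is -2 or below and its z-score without drug lies between -2 and 2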
Shown is one part, drawn at random, of about 17,000 reagents. 788 of all reagents (4.7%) were called active. 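Calls rest on z-score classes alone; an extra cut-off of viability at most 70% of control was not applied to them.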 Not all columns of the deposit are shown. No sequences are given here.

Knock-down of Wfikkn2 gave: combined z-score class no change with or without drug; viability z-score with doxorubicin -0.67; viability z-score without drug -0.51; inactive.
With knock-down of Lrig3, the screen gave combined z-score class no change with or without drug; viability z-score with doxorubicin 1.57; viability z-score without drug 1.01; inactive.
After knock-down of Cstad, the screen gave combined z-score class no change with or without drug; viability z-score with doxorubicin -1.46; viability z-score without drug 0; inactive.
Sat1 gave combined z-score class no change with or without drug; viability z-score with doxorubicin -0.11; viability z-score without drug 1.18; inactive.
Vldlr scored combined z-score class no change with or without drug; viability z-score with doxorubicin 0.22; viability z-score without drug 1.35; inactive.
After knock-down of St3gal1, the record shows combined z-score class no change with or without drug; viability z-score with doxorubicin 0.45; viability z-score without drug -0.34; inactive.
Silencing of 4732427B05 resulted in: combined z-score class no change with or without drug; viability z-score with doxorubicin 0.22; viability z-score without drug 0.51; inactive.
Lasp1 scored combined z-score class no change with or without drug; viability z-score with doxorubicin 0.22; viability z-score without drug -1.18; inactive.
With knock-down of Rxfp3, the record shows combined z-score class no change with or without drug; viability z-score with doxorubicin 1.12; viability z-score without drug 0.84; inactive.
For Itih5 the deposit lists combined z-score class no change with or without drug; viability z-score with doxorubicin -0.67; viability z-score without drug -0.84; inactive.
After knock-down of Sp100, the screen gave combined z-score class no change with or without drug; viability z-score with doxorubicin -0.22; viability z-score without drug -0.17; inactive.
After knock-down of Scamp3 the results were combined z-score class no change with or without drug; viability z-score with doxorubicin 1.57; viability z-score without drug 1.18; inactive.
Wt1 gave combined z-score class no change with or without drug; viability z-score with doxorubicin -0.34; viability z-score without drug 0; inactive.
For Spint4, the entry reads combined z-score class high cell count without drug only; viability z-score with doxorubicin 0.9; viability z-score without drug 2.02; inactive.
After knock-down of Brf2 the results were combined z-score class high cell count with doxorubicin only; viability z-score with doxorubicin 2.02; viability z-score without drug 0.84; inactive.
Against Nup43 the deposit lists combined z-score class no change with or without drug; viability z-score with doxorubicin 0.45; viability z-score without drug -1.18; inactive.
Against Glipr1l2 the deposit lists combined z-score class no change with or without drug; viability z-score with doxorubicin 0.45; viability z-score without drug 0.84; inactive.
After knock-down of Edem3 the results were combined z-score class high cell count without drug only; viability z-score with doxorubicin 0.22; viability z-score without drug 2.36; inactive.
Srl showed combined z-score class no change with or without drug; viability z-score with doxorubicin -0.67; viability z-score without drug -1.52; inactive.
For Synrg, the values are combined z-score class no change with or without drug; viability z-score with doxorubicin 0.9; viability z-score without drug 0.17; inactive.
Against Rxra the deposit lists combined z-score class no change with or without drug; viability z-score with doxorubicin -1.46; viability z-score without drug -0.67; inactive.
For Celf6, the entry reads combined z-score class no change with or without drug; viability z-score with doxorubicin -1.46; viability z-score without drug -0.17; inactive.
After knock-down of Rtn4 the results were combined z-score class high cell count with doxorubicin only; viability z-score with doxorubicin 2.02; viability z-score without drug 1.85; inactive.
For Gpr68 the deposit lists combined z-score class no change with or without drug; viability z-score with doxorubicin -1.12; viability z-score without drug -0.51; inactive.
Depletion of Tmem220 came out at: combined z-score class low cell count with doxorubicin only; viability z-score with doxorubicin -3.82; viability z-score without drug -0.51; active.
After knock-down of Aasdhppt, the screen gave combined z-score class no change with or without drug; viability z-score with doxorubicin 1.35; viability z-score without drug 1.52; inactive.
Smtnl1 scored combined z-score class no change with or without drug; viability z-score with doxorubicin -1.24; viability z-score without drug -0.51; inactive.
Mcm3ap gave combined z-score class no change with or without drug; viability z-score with doxorubicin -1.8; viability z-score without drug -1.01; inactive.

Reformatted: 2 of the entries above
{"target gene":"Glipr1l2","combined z-score class":"no change with or without drug","viability z-score with doxorubicin":0.45,"viability z-score without drug":0.84,"activity call":"inactive"}
{"target gene":"Edem3","combined z-score class":"high cell count without drug only","viability z-score with doxorubicin":0.22,"viability z-score without drug":2.36,"activity call":"inactive"}
